# According to patent publication US6683104B1, “Cholesterol and triglyceride-modulating drugs and methods” (A.P. Group, Inc., priority 2003, dated 2004):
# Some of these results come from one statement about several compounds together. Some ranges recur; such a range may be that of the whole group of compounds.
# System: serum HDL cholesterol
# Assay: HDL-Rising Activity: serum HDL cholesterol in hamsters after oral gavage
# Assay type: in vivo
# Conditions: 10 mg per kg body weight, twice per day, seven days, p<0.01
row,Compound,increased HDL cholesterol levels compared to a control group given gavage vehicle only
1,"CN(C(=O)Nc1ccccc1)c1ccc(Oc2cc[nH]c2)cc1 [Example 1, 1-Methyl-3-phenyl-1-[4-(1H-pyrrol-3-yloxy)-phenyl]-urea]",15-45%
2,"CNC(=O)N(C)c1ccc(Oc2cc[nH]c2)cc1 [Example 2, 1,3-Dimethyl-1-[4-(1H-pyrrol-3-yloxy)-phenyl]-urea]",15-45%
3,"CCN(C(=O)NC)c1ccc(Oc2cc[nH]c2)cc1 [Example 3, 1-Ethyl-3-methyl-1-[4-(1H-pyrrol-3-yloxy)-phenyl]-urea]",15-45%
4,"CNC(=O)N(C)c1ccc(Oc2ccc[nH]2)cc1 [Example 4, 1,3-Dimethyl-1-[4-(1H-pyrrol-2-yloxy)-phenyl]-urea]",15-45%
5,"CNC(=O)N(C)c1ccc(Oc2ccon2)cc1 [Example 5, 1-[4-(Isoxazol-3-yloxy)-phenyl]-1,3-dimethyl-urea]",15-45%
